By UniProt entry, the sequences of proteins in these tests, tags left out. Where a name states a change or a piece, a line headed by the entry shows the natural chain unless it says otherwise.
UniProt Q01939: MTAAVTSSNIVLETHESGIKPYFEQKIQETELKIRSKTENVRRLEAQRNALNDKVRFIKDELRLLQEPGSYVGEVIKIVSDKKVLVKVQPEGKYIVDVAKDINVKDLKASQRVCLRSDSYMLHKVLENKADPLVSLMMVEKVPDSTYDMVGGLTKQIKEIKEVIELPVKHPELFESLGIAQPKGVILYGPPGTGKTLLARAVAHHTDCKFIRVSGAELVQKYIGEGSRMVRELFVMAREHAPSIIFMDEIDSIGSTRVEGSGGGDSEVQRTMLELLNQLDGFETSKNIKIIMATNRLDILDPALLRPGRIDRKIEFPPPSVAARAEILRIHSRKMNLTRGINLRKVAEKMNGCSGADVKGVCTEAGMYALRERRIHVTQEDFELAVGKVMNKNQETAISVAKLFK
UniProt P48510: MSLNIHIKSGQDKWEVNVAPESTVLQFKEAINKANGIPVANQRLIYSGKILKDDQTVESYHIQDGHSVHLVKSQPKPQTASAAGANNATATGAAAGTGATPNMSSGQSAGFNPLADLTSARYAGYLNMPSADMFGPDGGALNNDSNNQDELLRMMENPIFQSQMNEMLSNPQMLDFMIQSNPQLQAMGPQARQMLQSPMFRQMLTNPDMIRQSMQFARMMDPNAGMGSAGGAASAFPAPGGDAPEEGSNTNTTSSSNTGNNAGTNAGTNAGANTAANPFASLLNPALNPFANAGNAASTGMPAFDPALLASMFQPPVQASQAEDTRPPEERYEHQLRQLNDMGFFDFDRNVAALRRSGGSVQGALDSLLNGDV

According to PMC5059453:

How the values were obtained:
[1] = biological target: Tap-proteinA-Rpt6 (bait of the affinity-purified proteasomes) (S. cerevisiae) (UniProt Q01939); test: pull-down; TAP-Rpt6 proteasomes affinity-purified from yeast lysate on calmodulin resin; 50 mM Tris 7.4, 200 mM NaCl, 10 mM MgCl2, 2 mM CaCl2, 10% glycerol, 1 mM ATP, 1 mM DTT; bound fraction blotted with anti-Rpn10
His6-Dsk2-UbL domain = His6-Dsk2-UbL domain (UniProt P48510); test: pull-down; His6-tagged proteins immobilized on Ni2+ beads pull down purified Rpn10 or Ub-Rpn10 (42 μl of 2.8 mg ml^−1); 25 mM HEPES, 75 mM NaCl, 0.25% Triton X-100, 1 mM DTT, pH 7.4; 3 h at 4 °C; western blot with α-Rpn10; both purified

binding [1]: binds
B1: Rpn10-WT expressed in yeast (protein, UniProt P38886 1-268)
chain: MVLEATVLVIDNSEYSRNGDFPRTRFEAQIDSVEFIFQAKRNSNPENTVGLISGAGANPRVLSTFTAEFGKILAGLHDTQIEGKLHMATALQIAQLTLKHRQNKVQHQRIVAFVCSPISDSRDELIRLAKTLKKNNVAVDIINFGEIEQNTELLDEFIAAVNNPQEETSHLLTVTPGPRLLYENIASSPIILEEGSSGMGAFGGSGGDSDANGTFMDFGVDPSMDPELAMALRLSMEEEQQRQERLRQQQQQQDQPEQSEQPEQHQDK

binding [1]: binds
B2: Rpn10-K84R expressed in yeast (protein, UniProt P38886 1-268)
chain: B1 chain with K84R

binding (His6-Dsk2-UbL domain): binds
B3: apo-Rpn10 (protein, UniProt P38886 1-268)
chain: B1 chain

Substitutions are numbered along the chain they refer to. Names may count otherwise. Results are given in words; binding and its absence hold for the method and conditions named. Binding calls can cover weak binding; strength is not graded here. For part of these data: Binding seen in cells or lysates may run through a third protein. Each block holds one binder with its values, some of them ahead of it.
